Measured values as given in PubChem BioAssay AID540276 (National Center for Advancing Translational Sciences (NCATS), 2011).
Among all 300,000 compounds or so, about 5,400 (1.8%) were called active. Inconclusive means that the source gave no clear call. Such entries were picked first, then a sample of the others. Calls come from the whole dose curve; tested in HEK293 cells. Potencies of inconclusive entries are doubtful fits and often do not repeat.
% is set by controls: 0 for no effect and ±100 for the full control effect; potency is the fitted concentration of half-maximal effect.

Test: qHTS for inhibitors of binding or entry into cells for Marburg Virus
Details: Marburg virus pseudotyped entry inhibition, cell reporter; activity change, negative = inhibition: at 37.8 µM (top of the series) unless noted
With `COCc1ccc2oc(C(=O)O)cc2c1` the Potency was inconclusive: 5.62 µM [inhibitor, single point].
With `O=C(Nc1ccc(Br)cc1)c1cccc(NC(=O)C2C3CC4OC(=O)C2C4C3)c1` (stereo unspecified) the Potency was inconclusive: 0.0052 µM [inhibitor, full curve, poor fit].
With `Cc1[nH]c2ccccc2c1C(=O)CSC(=S)N1CCOCC1` the Potency was inconclusive: 0.562 µM [activator, full curve, poor fit].
For `Cc1cc(=O)[nH]c(SCCOc2cccc(C(F)(F)F)c2)n1`, the Potency was inconclusive: 0.092 µM [activator, full curve].
In the case of `COc1ccc(OC)c(NC(=O)C2CCCN2C(=O)OCc2ccccc2)c1` (stereo unspecified), the “activity change, negative = inhibition” value is reported as inactive: -17.3%.
For `COc1ccccc1NC(=O)c1ccc(NS(C)(=O)=O)cc1`, the “activity change, negative = inhibition” value was inactive: -0.288%.
For `Cc1ccc(NC(=O)C2(c3ccccc3)CCOCC2)cc1`, the Potency was inconclusive: 10 µM [activator, partial curve, poor fit].
In the case of `Cc1c(C(=O)NCc2ccccc2)oc2ccc(S(=O)(=O)N3CCC(C)CC3)cc12`, the Potency is reported as inconclusive: 35.5 µM [activator, single point].
For `O=C(NCc1ccco1)c1ccc2c(=O)n(Cc3ccco3)c(SCC(=O)N3CCCC3)nc2c1`, the Potency was inconclusive: 5.8 µM [activator, partial curve, poor fit].
In the case of `CCOCCn1c(=NC(=O)c2cc3ccccc3oc2=O)sc2cc(S(N)(=O)=O)ccc21`, the Potency is reported as inconclusive: 15.8 µM [activator, single point].
With `FC(F)(F)c1ccc(N2CCN(Cc3ccc4c(c3)OCO4)CC2)nc1` the “activity change, negative = inhibition” value was inactive: 2.11%.
For `CCn1c(CN2CCCCC2)nc2cc(NC(=O)COc3ccccc3C(C)(C)C)ccc21`, the Potency was inconclusive: 3.55 µM [inhibitor, single point].
In the case of `Cc1coc2c1c(C)cc1oc(=O)c(CC(=O)NCCc3ccc(Cl)cc3)c(C)c12`, the “activity change, negative = inhibition” value is reported as inactive: 7.03% [at 46.1 µM].
In the case of `CC(=O)c1c(C)c2c(n1CCN(C)C)CCCC2`, the Potency is reported as inconclusive: 0.794 µM [inhibitor, full curve, poor fit].
In the case of `CCCCCCCCCCCCCCCC[n+]1cccc2ccccc21`, the Potency is reported as inconclusive: 5.62 µM [inhibitor, full curve, poor fit].
In the case of `O=C(CCc1nc2ccccc2[nH]1)Nc1ccccc1`, the Potency is reported as inconclusive: 1.26 µM [inhibitor, partial curve, poor fit].
For `CCn1ncc([N+](=O)[O-])c1C(=O)Nc1cc(C)on1`, the Potency was inconclusive: 2.51 µM [inhibitor, partial curve, poor fit].
With `Cc1cccc(C)c1NC(=O)CS(=O)CC(=O)NC1CCN(Cc2ccccc2)CC1` (stereo unspecified) the Potency was inconclusive: 2.31 µM [inhibitor, partial curve, poor fit].
With `Cc1cc(CCCCCCCCc2cc(C)cc(=O)o2)oc(=O)c1` the “activity change, negative = inhibition” value was inactive: 2.32%.
With `COc1ccccc1C(=O)Nc1c(C(=O)c2ccccc2)oc2ccccc12` the “activity change, negative = inhibition” value was inactive: -16.6% [at 46.1 µM].
In the case of `CCOC(=O)N1CCN(CC(=O)NC(=O)Nc2ccc3c(c2)OCCO3)CC1`, the “activity change, negative = inhibition” value is reported as inactive: 8.38%.
In the case of `O=C(NC1CCN(Cc2ccccc2)CC1)c1cccc(OC(F)F)c1`, the Potency is reported as inconclusive: 0.501 µM [inhibitor, full curve, poor fit].
In the case of `CCOc1ccccc1NC(=O)/C(C#N)=C/c1c(C)nn(-c2ccc(F)cc2)c1Cl`, the “activity change, negative = inhibition” value is reported as inactive: -21.2%.
In the case of `COc1ccc(Cl)cc1NC(=S)NCc1cccs1`, the “activity change, negative = inhibition” value is reported as inactive: -11.1% [at 14.2 µM].
With `Cc1nc2ccc(NC(=O)Cc3ccccc3F)cc2s1` the Potency was inconclusive: 10 µM [inhibitor, partial curve, poor fit].
With `Cc1cc(NC(=O)CSc2ccc(-c3cccc([N+](=O)[O-])c3)nn2)no1` the “activity change, negative = inhibition” value was inactive: -22%.
For `CC(=O)/C(=N\Nc1ccc(C)cc1)Sc1nncn1C`, the Potency was inconclusive: 25.1 µM [inhibitor, single point].
For `COc1ccc(S(=O)(=O)N(CC(=O)NCC2CCCO2)C2CCCCC2)cc1OC` (stereo unspecified), the Potency was inconclusive: 3.55 µM [activator, single point].
With `COC(=O)c1ccc(NS(=O)(=O)c2ccc(Cl)cc2)o1` the activity change, negative = inhibition was inconclusive: 8.77% [activator] [at 46.1 µM].
For `Clc1ccc(/C=C\c2nccc3c2[nH]c2ccccc23)cc1`, the “activity change, negative = inhibition” value was inactive: -15.6% [at 46.1 µM].
For `c1ccc(Oc2ccccn2)cc1`, the “activity change, negative = inhibition” value was inactive: -15.8% [at 46.1 µM].
For `CCCOc1ccc(C(=O)NNC(=S)NC(C)=O)cc1`, the Potency was inconclusive: 25.9 µM [inhibitor, single point].
For `O=C1CN(C(=O)CSc2nc(-c3ccc(Cl)cc3)cs2)c2ccccc2N1`, the Potency was inconclusive: 29.1 µM [inhibitor, single point].
In the case of `C/C(=N/O)C(=O)NCCCNCCCN(C)C`, the “activity change, negative = inhibition” value is reported as inactive: 4.93% [at 46.1 µM].
For `COc1ccc(NCc2n[nH]c(=O)c3ccccc23)cc1`, the “activity change, negative = inhibition” value was inactive: -23.2% [at 46.1 µM].
For `CN(C)S(=O)(=O)N(CC(=O)Nc1ccc(Br)cc1F)c1ccccc1`, the Potency was inconclusive: 35.5 µM [inhibitor, single point].
With `Cc1cccnc1NC(=O)c1ccc2c(c1)OCCO2` the Potency was inconclusive: 2.82 µM [activator, single point].
With `CCOc1ccc(-n2c(SCC(=O)c3c(N)n(C)c(=O)n(C)c3=O)nnc2-c2cccnc2)cc1` the Potency was inconclusive: 6.31 µM [inhibitor, partial curve, poor fit].
For `O=C(Nc1cc(SCCO)cc([N+](=O)[O-])c1)c1ccc(Br)o1`, the Potency was inconclusive: 0.708 µM [inhibitor, full curve, poor fit].
In the case of `COc1ccc(CN(C)CC2CCCN(CCc3ccccc3C)C2)cc1O` (stereo unspecified), the Potency is reported as active: 8.91 µM.
In the case of `Cn1cccc1C(=O)NC(=O)COC(=O)CC12CC3CC(CC(C3)C1)C2`, the Potency is reported as inconclusive: 0.891 µM [activator, full curve, poor fit].
With `Oc1ccc(C=NNC(=S)Nc2cccnc2)nc1` the Potency was inconclusive: 10 µM [inhibitor, partial curve, poor fit].
With `CC(C)Oc1cc(S(=O)(=O)N2CCCCC2)ccc1N` the “activity change, negative = inhibition” value was inactive: 2.79% [at 46.1 µM].
In the case of `N#Cc1nc(Cc2ccccc2)oc1NCc1ccccc1`, the Potency is reported as inconclusive: 1.26 µM [inhibitor, partial curve, poor fit].
In the case of `Nc1nc(-c2ccccn2)nc(N)c1Cc1ccccc1F`, the Potency is reported as inconclusive: 5.62 µM [activator, single point].
With `Cc1cc(C)n(CCO)c(=O)n1` the “activity change, negative = inhibition” value was inactive: 4.3%.
